Among all 300,000 compounds or so, about 3,700 (1.2%) were called active. The inconclusive results got no clear call from the source; some entries with a clear call stand among them for comparison. Calls follow the shape of the full dose curve; tested in HEK293 cells. A potency beside an inconclusive call is a rough fit, not a confirmed value.
Experiment: qHTS for Inhibitors of binding or entry into cells for Lassa Virus; also: nearly all actives have a fitted effect of over 50% in size
Conditions: Lassa virus pseudotype entry inhibition, cell reporter; activity change, negative = inhibition: at 37.9 µM (top of the series) unless noted
% is scaled to controls: 0 for no effect and ±100 for the full control effect; potency is read from the fitted curve at half-maximal effect.

Row | Compound | Potency | activity change, negative = inhibition
1 | CCOC(=O)c1c(NC(=O)c2cc3ccccc3c(=O)o2)sc2c1CCC(C)C2 (configuration not stated) | inconclusive: 5.62 µM [activator, single point] | –
2 | Cc1ccc(C(=O)OCC(=O)N(CC(C)C)c2c(N)n(Cc3ccccc3)c(=O)[nH]c2=O)cc1[N+](=O)[O-] | inconclusive: 15.8 µM [inhibitor, single point] | –
3 | COc1ccc(CCN2C(=O)c3[nH]nc(-c4ccccc4O)c3C2c2ccc(OC)cc2)cc1 (configuration not stated) | inconclusive: 2 µM [inhibitor, full curve] | –
4 | C=CCN1C(=O)C2C(C(=O)NC)C3C=CC2(O3)C1C(=O)NCc1ccc(OC)cc1 (configuration not stated) | inconclusive: 1.26 µM [inhibitor, single point] | –
5 | COc1ccc(CCNS(=O)(=O)c2ccc3c(c2)NC(=O)CCS3)cc1OC | inconclusive: 11.2 µM [inhibitor, partial curve, poor fit] | –
6 | S=C(Nc1ccc(Cl)cc1)N1CCN(Cc2ccccc2)CC1 | inconclusive: 10 µM [inhibitor, partial curve, poor fit] | –
7 | O=C1C=C(NCc2ccc(Cl)c(Cl)c2)CC1 | – | inactive: 2.05%
8 | COc1ccc(N(C)S(=O)(=O)c2c(C)noc2C)c(OC)c1 | inconclusive: 0.92 µM [inhibitor, partial curve, poor fit] | –
9 | Oc1ccc(-c2csc(NCc3ccco3)n2)cc1 | inconclusive: 0.58 µM [inhibitor, partial curve, poor fit] | –
10 | CC(c1ccccc1)n1cnc2ccccc2c1=O (configuration not stated) | – | inactive: 6.58% [at 46.1 µM]
11 | CCOc1ccc(N(C(C)C(=O)N2CCOCC2)S(C)(=O)=O)cc1 (configuration not stated) | inconclusive: 35.5 µM [inhibitor, single point] | –
12 | OC(c1ccc(OCc2ccccc2)cc1)c1nnc(-c2ccccc2)o1 (configuration not stated) | inconclusive: 12.6 µM [inhibitor, single point] | –
13 | CCOc1ccc(CCNC(=O)c2ccc3c(c2)c(C)c(C)n3Cc2ccccc2)cc1OCC | inconclusive: 35.5 µM [inhibitor, single point] | –
14 | CC(C)c1ccccc1NC(=S)NCc1ccccc1F | inconclusive: 25.1 µM [inhibitor, single point] | –
15 | CN(C)CCNc1ccc(CO)c2sc3ccc(O)cc3c(=O)c12 | active: 1 µM | –
16 | COc1ccc(-c2oc(NC(=O)c3ccc(C)cc3)c(C#N)c2-c2ccc(OC)cc2)cc1 | – | inactive: -24.2%
17 | CCCCn1c(-c2ccc(Br)cc2F)nc2c1c(=O)[nH]c(=O)n2CC(C)C | inconclusive: 10 µM [inhibitor, partial curve] | –
18 | O=C1N=C2SCCN2/C1=C\c1ccccc1Cl | inconclusive: 12.6 µM [inhibitor, partial curve, poor fit] | –
19 | Cc1cc(C)nc(NS(=O)(=O)c2ccc(NC(=O)c3ccc(O)cc3O)cc2)n1 | inconclusive: 1.26 µM [inhibitor, single point] | –
20 | COc1ccc2[nH]c(=O)c(CN(Cc3ccco3)C(=O)c3ccccc3)cc2c1 | inconclusive: 1.26 µM [activator, partial curve, poor fit] | –
21 | c1ccc(OCc2nn3c(-c4ccncc4)nnc3s2)cc1 | – | inactive: -18.6%
22 | O=C(NC1=NCCS1)c1cc(-c2cccc(Br)c2)nc2ccccc12 | inconclusive: 35.5 µM [inhibitor, single point] | –
23 | COc1ccccc1CNC(=O)Cc1csc(NC(=O)Nc2ccccc2OC)n1 | inconclusive: 25.1 µM [inhibitor, single point] | –

Row | Compound | Potency | activity change, negative = inhibition
24 | CO/N=C(/COc1ccc(F)cc1)c1ccc(OC)cc1 | – | inactive: -21.4%
25 | CCCCn1c(SCC(=O)Nc2cc(NC(=O)c3ccco3)ccc2C)nc2ccccc2c1=O | inconclusive: 14.6 µM [inhibitor, partial curve, poor fit] | –
26 | CC(C)(C)OC(=O)N1CCC(c2nnc(SCc3cccc(Cl)c3)o2)CC1 | inconclusive: 25.1 µM [inhibitor, single point] | –
27 | c1ccc(-c2cc(-c3nn4c(-c5ccco5)nnc4s3)c3ccccc3n2)cc1 | inconclusive: 20.6 µM [inhibitor, single point] | –
28 | Cc1ccc(NC(=O)CC2SC(=Nc3ccc(O)cc3)NC2=O)cc1 (configuration not stated) | inconclusive: 1.12 µM [inhibitor, full curve, poor fit] | –
29 | COC(=O)Nc1nc2ccc(Sc3ccc(NC(=O)Nc4cc(C(F)(F)F)ccc4F)cc3)cc2[nH]1 | inconclusive: 4.99 µM [inhibitor, partial curve, poor fit] | –
30 | C=CCn1c(COc2ccccc2)nnc1SCC(=O)N/N=C/c1ccc(C)cc1 | inconclusive: 5.01 µM [inhibitor, full curve, poor fit] | –
31 | COc1ccc(CNCC(O)(c2ccccc2)c2ccc(F)cc2)cc1OC (configuration not stated) | inconclusive: 11.2 µM [inhibitor, partial curve, poor fit] | –
32 | Cc1ccc(CNC(=O)CN2C(=O)COc3ccc(S(=O)(=O)Nc4ccccc4)cc32)cc1 | – | inactive: 10.1% [at 46.1 µM]
33 | O=C(CSc1nnc(-c2ccc(S(=O)(=O)N3CCCC3)cc2)n1CC1CCCO1)NC1CC1 (configuration not stated) | inconclusive: 2.82 µM [inhibitor, partial curve] | –
34 | COc1ccc(NC(=O)CSc2ccc3nc(-c4ccccc4)cn3n2)cc1OC | inconclusive: 7.94 µM [activator, partial curve, poor fit] | –
35 | CCOC(=O)c1[nH]c(C)c(C(=O)N(C)C)c1C | – | inactive: 12%
36 | CC(N=C(NC#N)Nc1ccncc1)C(C)(C)C (configuration not stated) | inconclusive: 29.1 µM [activator, single point] | –
37 | COC(=O)C1=C(C)NC(=O)/C1=C\c1cc(C)n(-c2cc(C)cc(C)c2)c1C | inconclusive: 31.6 µM [inhibitor, single point] | –
38 | Cc1nn(CC(=O)c2ccccc2Cl)c(C)c1[N+](=O)[O-] | – | inactive: -0.503%
39 | COc1ccc(-c2nc(SCC(=O)Nc3ccc4c(c3)OCCO4)c(-c3ccc(C)cc3)[nH]2)cc1OC | inconclusive: 35.5 µM [inhibitor, single point] | –
40 | CN(C)c1ccc(/C=N/NC(=O)Cn2nnc3ccccc32)cc1 | inconclusive: 29.1 µM [activator, single point] | –
41 | CCCCOCCCNC(=O)/C=C/c1ccccc1Cl | inconclusive: 1.78 µM [activator, partial curve, poor fit] | –
42 | COc1ccc(/C(O)=C2/C(=O)C(=O)N(Cc3cccnc3)C2c2ccco2)cc1OC (configuration not stated) | – | inactive: 0%
43 | Cc1c(Cl)cnc(NC(=O)CSc2nnc3ccccn23)c1Cl | inconclusive: 11.2 µM [activator, partial curve] | –
44 | CC(C)N(C(=O)NC(=O)Nc1ccccn1)S(C)(=O)=O | – | inactive: 10.1%
45 | Cc1cccc(C(=O)Nc2nnc(C3=COCCO3)o2)c1 | – | inactive: -16.6%
46 | COc1ccc2c(C)c(C(=O)O)oc2c1 | – | inactive: 4.92%

No new results follow: entries from further up.
Row | Compound | Potency | activity change, negative = inhibition
26 | CC(C)(C)OC(=O)N1CCC(c2nnc(SCc3cccc(Cl)c3)o2)CC1 | inconclusive: 25.1 µM [inhibitor, single point] | –
27 | c1ccc(-c2cc(-c3nn4c(-c5ccco5)nnc4s3)c3ccccc3n2)cc1 | inconclusive: 20.6 µM [inhibitor, single point] | –
28 | Cc1ccc(NC(=O)CC2SC(=Nc3ccc(O)cc3)NC2=O)cc1 (configuration not stated) | inconclusive: 1.12 µM [inhibitor, full curve, poor fit] | –
29 | COC(=O)Nc1nc2ccc(Sc3ccc(NC(=O)Nc4cc(C(F)(F)F)ccc4F)cc3)cc2[nH]1 | inconclusive: 4.99 µM [inhibitor, partial curve, poor fit] | –
30 | C=CCn1c(COc2ccccc2)nnc1SCC(=O)N/N=C/c1ccc(C)cc1 | inconclusive: 5.01 µM [inhibitor, full curve, poor fit] | –
31 | COc1ccc(CNCC(O)(c2ccccc2)c2ccc(F)cc2)cc1OC (configuration not stated) | inconclusive: 11.2 µM [inhibitor, partial curve, poor fit] | –
32 | Cc1ccc(CNC(=O)CN2C(=O)COc3ccc(S(=O)(=O)Nc4ccccc4)cc32)cc1 | – | inactive: 10.1% [at 46.1 µM]
33 | O=C(CSc1nnc(-c2ccc(S(=O)(=O)N3CCCC3)cc2)n1CC1CCCO1)NC1CC1 (configuration not stated) | inconclusive: 2.82 µM [inhibitor, partial curve] | –
34 | COc1ccc(NC(=O)CSc2ccc3nc(-c4ccccc4)cn3n2)cc1OC | inconclusive: 7.94 µM [activator, partial curve, poor fit] | –
35 | CCOC(=O)c1[nH]c(C)c(C(=O)N(C)C)c1C | – | inactive: 12%
36 | CC(N=C(NC#N)Nc1ccncc1)C(C)(C)C (configuration not stated) | inconclusive: 29.1 µM [activator, single point] | –
37 | COC(=O)C1=C(C)NC(=O)/C1=C\c1cc(C)n(-c2cc(C)cc(C)c2)c1C | inconclusive: 31.6 µM [inhibitor, single point] | –
38 | Cc1nn(CC(=O)c2ccccc2Cl)c(C)c1[N+](=O)[O-] | – | inactive: -0.503%
39 | COc1ccc(-c2nc(SCC(=O)Nc3ccc4c(c3)OCCO4)c(-c3ccc(C)cc3)[nH]2)cc1OC | inconclusive: 35.5 µM [inhibitor, single point] | –
40 | CN(C)c1ccc(/C=N/NC(=O)Cn2nnc3ccccc32)cc1 | inconclusive: 29.1 µM [activator, single point] | –
41 | CCCCOCCCNC(=O)/C=C/c1ccccc1Cl | inconclusive: 1.78 µM [activator, partial curve, poor fit] | –

Carrying on:

Row | Compound | Potency | activity change, negative = inhibition
47 | CCN1C(=O)CSC1=Nc1ccccc1Cl | – | inactive: -0.326%
48 | N=c1n(Cc2ccccc2)c2ccccc2n1CC(O)COc1ccc(Cl)cc1Cl (configuration not stated) | inconclusive: 35.5 µM [inhibitor, single point] | –
49 | COc1ccccc1CNC(=O)CCC1N=C2c3ccccc3N=C(SCc3ccc(C)cc3C)N2C1=O (configuration not stated) | inconclusive: 3.55 µM [inhibitor, partial curve, poor fit] | –
50 | Clc1ccc(-c2nc(-c3ccccn3)no2)cc1Cl | inconclusive: 23.1 µM [inhibitor, single point] | –
51 | Cc1ccc2nc3sc(C(=O)NCCCN(C)c4ccccc4)cc3cc2c1 | – | inactive: 22.9% [at 46.1 µM]
52 | COc1ccc(Cl)cc1NC(=O)CN1CCN(S(=O)(=O)N2CCOCC2)CC1 | – | inactive: -15.6%
53 | O=[N+]([O-])c1cccc(/C=C/c2nc3ccc([N+](=O)[O-])cc3[nH]2)c1 | inconclusive: 35.5 µM [inhibitor, single point] | –
54 | Cc1ccc(C)c(NC(=O)CSc2nnc(-c3ccccc3)n2N)c1 | inconclusive: 35.5 µM [inhibitor, partial curve, poor fit] | –
55 | CC(=O)Nc1cccc(OCC(=O)NC(C)c2ccc3ccccc3c2)c1 (configuration not stated) | inconclusive: 35.5 µM [inhibitor, single point] | –
56 | CCCCCOC(=O)CSc1ncnc2sc3c(c12)CCC(C)C3 (configuration not stated) | inconclusive: 11.2 µM [activator, partial curve, poor fit] | –
57 | COCCCN1C(=O)c2[nH]nc(-c3ccccc3O)c2C1c1cccc(Cl)c1 (configuration not stated) | inconclusive: 2.31 µM [inhibitor, full curve] | –
58 | COCC(=O)N1CCC(Oc2ccc(C(=O)NC3CCOC(C)(C)C3)cc2)CC1 (configuration not stated) | inconclusive: 5.62 µM [activator, single point] | –
59 | Cc1c(C(=O)NC2=NCCS2)oc2ccccc12 | inconclusive: 16.4 µM [inhibitor, single point] | –
60 | O=C(NCC(=O)N(Cc1ccccc1)C(C(=O)NC1CCCC1)c1ccncc1)c1ccco1 (configuration not stated) | inconclusive: 1.41 µM [activator, partial curve] | –
61 | O=C(Nc1ccc(C(=O)N2CCOCC2)cc1)c1cnn2c(C(F)F)cc(-c3ccccc3)nc12 | – | inactive: -0.574% [at 46.1 µM]
62 | CN(c1ccccc1)S(=O)(=O)c1cccc(C(=O)OCC(=O)NCc2ccccc2)c1 | – | inactive: 0.363% [at 46.1 µM]
63 | Cc1ccccc1C(=O)Nc1nnc(-c2ccncc2)o1 | inconclusive: 6.31 µM [inhibitor, single point] | –
64 | COc1cccc(NC(=O)C(=S)NC2CCCCC2)c1 | inconclusive: 11.2 µM [inhibitor, partial curve, poor fit] | –
65 | CCC(C)(C)n1nnnc1C(c1ccc(OC)c(OC)c1)N1CCN(c2cccc(OC)c2)CC1 (configuration not stated) | – | inactive: -27.9%
66 | CCNc1nc(NCC)n2c(SCC(=O)Nc3ccc(Br)cc3F)nnc2n1 | – | inactive: -0.196%
67 | O=C(CSc1nnc(-c2cccs2)o1)N1CCc2ccccc21 | – | inactive: -2.58%

Source: PubChem BioAssay AID540256 (National Center for Advancing Translational Sciences (NCATS), 2011)
